No constants are given. Whether binding was seen depends on the method and setting. Binding seen in cells or lysates may run through a third protein. A yes stands for co-enrichment or nearness to the bait. Other partners may have been found. For part of these data: A no says only that the protein was not detected with the bait.
Tests used:
[1] = target: Flag-tagged eIF4A2^FL (mouse) (UniProt P10630); assay: affinity purification with mass spectrometry; anti-Flag M2 cross-linked (DMP) to Dynabeads; 1 mg lysate of Eif4a2 KO ESCs expressing only Flag-eIF4A2^FL or Flag-eIF4A2^PTC, after 1 µM epoxomicin for 3 h; 2 h at 4°C; compared with Flag IP from empty vector cells; label-free quantification, 5% FDR; not told whether nucleic acids were removed
[2] = target: Flag-tagged eIF4A2^PTC (mouse); assay: as above

Chains of the proteins cited; added tags and fusions are not shown.
UniProt P10630: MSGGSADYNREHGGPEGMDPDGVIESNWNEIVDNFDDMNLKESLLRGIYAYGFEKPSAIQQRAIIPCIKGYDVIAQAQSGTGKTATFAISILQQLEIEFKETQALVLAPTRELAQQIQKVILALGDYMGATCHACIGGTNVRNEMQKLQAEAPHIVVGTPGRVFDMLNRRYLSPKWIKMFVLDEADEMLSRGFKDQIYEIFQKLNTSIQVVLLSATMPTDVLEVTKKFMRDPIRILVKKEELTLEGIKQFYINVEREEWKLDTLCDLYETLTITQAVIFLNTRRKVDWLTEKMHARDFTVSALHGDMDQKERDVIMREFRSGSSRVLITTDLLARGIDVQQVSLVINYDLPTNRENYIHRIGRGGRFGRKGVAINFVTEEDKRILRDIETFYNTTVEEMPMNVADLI
UniProt Q9EPU0: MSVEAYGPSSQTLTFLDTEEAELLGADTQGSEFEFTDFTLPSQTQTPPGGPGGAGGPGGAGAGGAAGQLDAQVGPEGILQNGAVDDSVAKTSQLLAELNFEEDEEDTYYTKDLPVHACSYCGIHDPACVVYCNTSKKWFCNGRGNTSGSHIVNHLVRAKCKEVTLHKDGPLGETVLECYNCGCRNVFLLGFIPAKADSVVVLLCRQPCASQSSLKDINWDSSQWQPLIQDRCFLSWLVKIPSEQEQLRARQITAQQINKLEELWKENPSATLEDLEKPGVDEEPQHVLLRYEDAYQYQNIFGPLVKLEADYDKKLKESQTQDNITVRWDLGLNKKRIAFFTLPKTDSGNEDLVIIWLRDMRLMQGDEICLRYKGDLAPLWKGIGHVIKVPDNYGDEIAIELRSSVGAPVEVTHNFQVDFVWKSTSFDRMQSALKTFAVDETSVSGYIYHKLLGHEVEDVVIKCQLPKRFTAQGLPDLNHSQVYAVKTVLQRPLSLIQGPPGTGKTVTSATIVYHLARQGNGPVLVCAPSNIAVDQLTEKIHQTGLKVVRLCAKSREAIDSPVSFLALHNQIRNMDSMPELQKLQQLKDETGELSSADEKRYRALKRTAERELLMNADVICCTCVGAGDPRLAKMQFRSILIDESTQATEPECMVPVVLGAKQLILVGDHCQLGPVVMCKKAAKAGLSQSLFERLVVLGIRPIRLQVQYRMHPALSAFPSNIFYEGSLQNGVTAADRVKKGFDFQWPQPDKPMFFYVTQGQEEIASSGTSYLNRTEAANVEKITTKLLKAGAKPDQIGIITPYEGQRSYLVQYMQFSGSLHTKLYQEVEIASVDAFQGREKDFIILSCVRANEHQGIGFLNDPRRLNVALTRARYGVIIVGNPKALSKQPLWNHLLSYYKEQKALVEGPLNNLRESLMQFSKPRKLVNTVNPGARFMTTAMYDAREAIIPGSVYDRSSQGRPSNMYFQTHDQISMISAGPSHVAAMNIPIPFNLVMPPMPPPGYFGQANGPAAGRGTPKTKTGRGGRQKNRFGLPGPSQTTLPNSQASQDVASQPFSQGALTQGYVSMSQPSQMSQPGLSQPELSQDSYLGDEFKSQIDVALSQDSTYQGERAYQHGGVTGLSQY
UniProt P61406: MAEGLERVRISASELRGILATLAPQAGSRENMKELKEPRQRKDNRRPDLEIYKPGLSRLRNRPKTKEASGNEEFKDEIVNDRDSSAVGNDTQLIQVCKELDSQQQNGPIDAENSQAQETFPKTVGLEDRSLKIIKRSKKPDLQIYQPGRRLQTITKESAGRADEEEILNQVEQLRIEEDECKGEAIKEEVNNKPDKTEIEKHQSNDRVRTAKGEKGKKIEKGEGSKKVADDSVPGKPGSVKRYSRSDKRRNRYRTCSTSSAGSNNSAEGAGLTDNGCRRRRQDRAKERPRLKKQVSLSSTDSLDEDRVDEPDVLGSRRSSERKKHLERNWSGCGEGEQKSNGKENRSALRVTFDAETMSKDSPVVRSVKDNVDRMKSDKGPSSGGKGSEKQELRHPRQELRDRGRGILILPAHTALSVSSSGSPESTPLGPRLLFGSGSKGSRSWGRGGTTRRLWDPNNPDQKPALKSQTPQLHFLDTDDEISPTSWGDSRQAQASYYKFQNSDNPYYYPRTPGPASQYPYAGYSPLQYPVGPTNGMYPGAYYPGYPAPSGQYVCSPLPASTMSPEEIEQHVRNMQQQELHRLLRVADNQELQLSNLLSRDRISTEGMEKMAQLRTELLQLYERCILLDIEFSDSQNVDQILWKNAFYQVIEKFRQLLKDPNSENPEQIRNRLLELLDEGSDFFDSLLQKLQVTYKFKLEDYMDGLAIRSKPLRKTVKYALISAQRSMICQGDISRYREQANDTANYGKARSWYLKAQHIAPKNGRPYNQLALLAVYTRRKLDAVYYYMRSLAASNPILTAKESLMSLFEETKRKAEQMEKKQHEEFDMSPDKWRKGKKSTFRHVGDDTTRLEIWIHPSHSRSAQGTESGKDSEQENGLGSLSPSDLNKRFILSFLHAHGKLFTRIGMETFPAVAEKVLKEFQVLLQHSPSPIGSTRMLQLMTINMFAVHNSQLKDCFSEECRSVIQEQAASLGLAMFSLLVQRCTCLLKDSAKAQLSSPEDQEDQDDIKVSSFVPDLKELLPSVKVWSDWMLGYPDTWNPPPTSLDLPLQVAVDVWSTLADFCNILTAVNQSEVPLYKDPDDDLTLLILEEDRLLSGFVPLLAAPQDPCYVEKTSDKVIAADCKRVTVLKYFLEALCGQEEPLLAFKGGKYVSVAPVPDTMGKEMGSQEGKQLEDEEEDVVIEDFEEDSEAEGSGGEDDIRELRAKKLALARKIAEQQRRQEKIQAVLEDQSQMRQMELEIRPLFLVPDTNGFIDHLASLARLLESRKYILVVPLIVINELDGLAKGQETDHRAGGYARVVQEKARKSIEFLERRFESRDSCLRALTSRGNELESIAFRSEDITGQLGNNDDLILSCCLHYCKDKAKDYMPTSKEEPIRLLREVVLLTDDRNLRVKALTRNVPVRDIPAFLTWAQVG
UniProt P60843: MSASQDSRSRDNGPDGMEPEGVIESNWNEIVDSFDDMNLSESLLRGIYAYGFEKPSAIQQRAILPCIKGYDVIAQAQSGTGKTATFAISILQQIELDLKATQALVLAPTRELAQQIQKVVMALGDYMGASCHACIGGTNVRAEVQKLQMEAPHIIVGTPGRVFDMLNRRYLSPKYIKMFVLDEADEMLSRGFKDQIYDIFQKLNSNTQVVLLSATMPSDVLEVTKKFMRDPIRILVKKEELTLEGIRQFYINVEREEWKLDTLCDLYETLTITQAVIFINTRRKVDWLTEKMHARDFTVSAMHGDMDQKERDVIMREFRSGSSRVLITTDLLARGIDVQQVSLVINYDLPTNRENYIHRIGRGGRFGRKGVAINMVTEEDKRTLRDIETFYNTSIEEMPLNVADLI
UniProt Q61037: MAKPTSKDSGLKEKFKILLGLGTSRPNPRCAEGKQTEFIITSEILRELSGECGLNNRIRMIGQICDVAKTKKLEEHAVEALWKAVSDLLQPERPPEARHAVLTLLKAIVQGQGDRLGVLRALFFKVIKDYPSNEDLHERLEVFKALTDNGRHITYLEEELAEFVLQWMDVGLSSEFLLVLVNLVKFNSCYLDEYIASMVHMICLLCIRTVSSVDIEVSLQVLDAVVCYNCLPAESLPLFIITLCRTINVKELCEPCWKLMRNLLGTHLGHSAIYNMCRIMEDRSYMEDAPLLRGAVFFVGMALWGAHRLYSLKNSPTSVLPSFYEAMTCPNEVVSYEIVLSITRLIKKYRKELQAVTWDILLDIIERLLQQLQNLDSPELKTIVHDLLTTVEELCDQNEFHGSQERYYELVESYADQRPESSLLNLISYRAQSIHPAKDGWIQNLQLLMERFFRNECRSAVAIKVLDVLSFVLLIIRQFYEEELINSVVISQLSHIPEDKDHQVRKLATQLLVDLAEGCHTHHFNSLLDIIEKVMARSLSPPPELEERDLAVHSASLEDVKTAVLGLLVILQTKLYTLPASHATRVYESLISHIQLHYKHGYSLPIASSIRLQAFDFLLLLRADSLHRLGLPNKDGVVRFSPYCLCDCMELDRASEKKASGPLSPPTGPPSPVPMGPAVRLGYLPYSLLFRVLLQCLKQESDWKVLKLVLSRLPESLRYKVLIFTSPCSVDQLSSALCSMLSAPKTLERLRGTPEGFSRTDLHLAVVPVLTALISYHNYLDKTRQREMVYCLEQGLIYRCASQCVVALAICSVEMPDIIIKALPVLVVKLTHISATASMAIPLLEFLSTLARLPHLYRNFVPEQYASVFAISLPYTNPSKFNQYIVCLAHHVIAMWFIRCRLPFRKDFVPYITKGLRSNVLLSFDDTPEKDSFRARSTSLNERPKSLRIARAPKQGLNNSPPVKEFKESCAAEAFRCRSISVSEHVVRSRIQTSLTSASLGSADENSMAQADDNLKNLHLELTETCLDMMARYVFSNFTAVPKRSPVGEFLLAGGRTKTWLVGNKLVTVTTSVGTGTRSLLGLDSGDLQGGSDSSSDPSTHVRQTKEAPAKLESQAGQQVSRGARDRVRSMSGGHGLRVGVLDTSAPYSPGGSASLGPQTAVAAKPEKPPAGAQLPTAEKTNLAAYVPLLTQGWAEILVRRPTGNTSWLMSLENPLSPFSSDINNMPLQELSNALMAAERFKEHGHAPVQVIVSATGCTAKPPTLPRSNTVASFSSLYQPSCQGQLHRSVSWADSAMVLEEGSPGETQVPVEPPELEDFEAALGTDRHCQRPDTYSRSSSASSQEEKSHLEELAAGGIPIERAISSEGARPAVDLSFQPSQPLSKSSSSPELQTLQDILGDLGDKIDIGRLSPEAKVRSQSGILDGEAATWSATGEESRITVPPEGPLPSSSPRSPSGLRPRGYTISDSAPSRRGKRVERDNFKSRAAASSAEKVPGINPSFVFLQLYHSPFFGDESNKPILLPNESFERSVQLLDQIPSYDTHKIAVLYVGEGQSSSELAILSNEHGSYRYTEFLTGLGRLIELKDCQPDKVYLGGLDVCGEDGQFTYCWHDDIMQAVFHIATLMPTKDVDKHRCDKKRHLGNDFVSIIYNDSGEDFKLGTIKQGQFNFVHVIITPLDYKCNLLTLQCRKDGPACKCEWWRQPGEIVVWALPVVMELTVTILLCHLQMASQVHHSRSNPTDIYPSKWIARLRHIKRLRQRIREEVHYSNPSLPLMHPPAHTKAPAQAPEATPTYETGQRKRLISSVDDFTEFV
UniProt Q8CJG0: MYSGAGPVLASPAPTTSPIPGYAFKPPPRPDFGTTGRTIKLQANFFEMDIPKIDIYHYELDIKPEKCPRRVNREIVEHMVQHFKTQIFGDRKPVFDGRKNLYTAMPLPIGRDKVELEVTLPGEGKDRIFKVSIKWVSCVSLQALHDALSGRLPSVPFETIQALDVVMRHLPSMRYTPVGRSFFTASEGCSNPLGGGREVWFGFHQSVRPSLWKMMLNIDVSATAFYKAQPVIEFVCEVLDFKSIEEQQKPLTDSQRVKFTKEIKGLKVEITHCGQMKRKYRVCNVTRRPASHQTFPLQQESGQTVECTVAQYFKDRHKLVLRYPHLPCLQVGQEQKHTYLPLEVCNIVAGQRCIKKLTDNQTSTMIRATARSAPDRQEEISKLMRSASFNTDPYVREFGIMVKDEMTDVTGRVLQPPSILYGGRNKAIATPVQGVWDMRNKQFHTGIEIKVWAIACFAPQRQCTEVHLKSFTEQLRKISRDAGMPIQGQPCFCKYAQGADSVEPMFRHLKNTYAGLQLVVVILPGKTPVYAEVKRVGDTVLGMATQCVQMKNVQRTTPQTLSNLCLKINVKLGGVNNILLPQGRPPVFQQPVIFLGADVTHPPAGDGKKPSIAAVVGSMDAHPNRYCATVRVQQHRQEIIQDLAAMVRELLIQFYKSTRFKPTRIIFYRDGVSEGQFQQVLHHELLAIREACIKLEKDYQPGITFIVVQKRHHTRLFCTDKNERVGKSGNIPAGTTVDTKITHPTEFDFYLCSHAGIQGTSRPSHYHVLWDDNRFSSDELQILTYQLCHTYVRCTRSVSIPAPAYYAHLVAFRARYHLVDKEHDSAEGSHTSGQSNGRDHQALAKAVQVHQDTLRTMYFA

binding [1] | binding [2] | Molecule
binds |  | UPF1 (from UniProt Q9EPU0 1-1124)
binds |  | PUM1 (from UniProt Q80U78 1-1189)
no binding |  | RAF1 (from UniProt Q99N57 1-648)
binds |  | SMG6 (from UniProt P61406 1-1418)
no binding |  | eIF4A1 (from UniProt P60843 1-406)
no binding |  | TSC2 (from UniProt Q61037 1-1814)
binds |  | AGO2 (from UniProt Q8CJG0 1-860)
binds | binds | TRIM71 (protein, UniProt Q1PSW8 1-855) MASFPETDFQICLLCKEMCGSPAPLSSNSSASSSSSQTSTSSAGGGGPGAAARRLHVLPCLHAFCRPCLEAHRLPAPGGAGPAEALKLRCPVCDQKVVLAEAAGMDALPSSAFLLSNLLDAVVATAEEPPPKNGRAGGGPGGAGGHSNHRHHAHHPAQRAAAPAPQPPPGPAASPGSLLMRRPHGCSSCDEGNAASSRCLDCQEHLCDNCVRAHQRVRLTKDHYIERGPPGPAAASAAQQLGLGPPFAGAPFSILSVFPERLGFCQHHDDEVLHLYCDTCSVPICRECTLGRHGGHSFAYLQDALQDSRALTIQLLADAQQGRQALQLSIEQAQTVAEQVEMKAKVVQSEVKAVTARHKKALEDRECELLWKVEKIRQVKAKSLFLQVEKLRQSLSKLESTISAVQQVLEEGRALDILLARDRMLAQVQELKTIRGLLQPQEDDRIMFTPPDQALYLALKSIGFVSSGAFAPLTKATGDGIKRALQGKVASFTVMGYDHDGEPRHSGGDLMSVVVLGPDGNLFGAEVSDQQNGTYIVSYRPQLEGEHLVSVTLYNQHIENSPFKVVVKSGRSYVGIGLPGLSFGSEGDGEGKLCRPWGVSVDKEGFIIVADRSNNRIQVFKPCGSFHHKFGTLGSRPGQFDRPAGVACDASRRIIVADKDNHRIQIFTFEGQFLLKFGEKGTKNGQFNYPWDVAVNSEGKILVSDTRNHRIQLFGPDGVFLNKYGFEGSLWKHFDSPRGVAFNNEGHLVVTDFNNHRLLVIHPDCQSARFLGSEGSGNGQFLRPQGVAVDQEGRIIVADSRNHRVQMFEANGSFLCKFGAQGSGFGQMDRPSGIAVTPDGLIVVVDFGNNRILIF
no binding | binds | MIOS (protein, UniProt Q8VE19 1-875) MSGTKPDILWAPHQVDRFVVCDSELSLYHVESAVNSELKAGSLRLSEDSAATLLSINSDTPYMKCVAWYLNYDPECLLAVGQANGRVVLTSLGQDHNSKFKDLIGKEFVPKHARQCNTLAWNPLDSNWLAAGLDKHRADFSVLIWDICSKYTPDIVPMEKVRLSAGEAETTLLVTKPLYELGQNDASLSLCWLPRDQKLLLAGMHRNLAIFDLRNTSQKMFVNTKAVQGVTVDPYFHDRVASFYEGQVAIWDLRKFEKPVLTLTEQPKPLTKVAWCPTRTGLLATLTRDSNIIRLYDMQHTPTPIGDETEPTIIERSVQPCDNYIASFAWHPTSQNRMIVVTPNRTMSDFTVFERISLAWSPITSLMWACGRHLYECAEEESDNSLEKDIATKMRLRALSRYGLDTEQVWRNHILAGNEDPQLKSLWYTLHFMKQYTEDNDQKSPGNKGSLVYAGIKSIVKSSLGMVESSRHNWSGLDKQTDIQNLNEERILALQLCGWIKKGTDVDVGPFLNSLVQEGEWERAAAVALFNLDIRRAIQILNEGASSEKGDLNLNVVAMALSGYTDEKNSLWREMCSTLRLQLNNPYLCVMFAFLTSEAGAYDGVLYENKVAVRDRVAFACKFLGDAQLNKYIEKLTNEMKEAGNLEGILLTGLTKDGVDLMESYVDRTGDVQTASYCMLQGSPLDVLKDERVQYWIENYRNLLDAWRFWHKRAEFDIHRSKLDPSSKPLAQVFVSCNFCGKSISYSCSSVPHQGRGFSQYGVSGSPTKSKVTSCPGCRKPLPRCALCLINMGTPVSSCPGGSKSDEKVDLSKDKKLAQFNNWFTWCHNCRHGGHAGHMLSWFRDHAECPVSACTCKCMQLDTTGNLVPAETVQP
binds | binds | SMG7 (protein, UniProt Q5RJH6 1-1138) MSLQSAQYLRQAEVLKAEMTDSKLGPAEVWTSRQALQDLYQKMLVTDLEYALDKKVEQDLWNHAFKNQITTLQGQAKNRANPNRSEVQANLSLFLEAASGFYTQLLQELCTVFNVDLPCRVKSSQLGIISNKQTHSSTIVKPQSSSCSYICQHCLVHLGDIARYRNQTSQAESYYRHAAQLVPSNGQPYNQLAILASSKGDHLTTIFYYCRSIAVKFPFPAASTNLQKALSKALESRDELKTKWGVSDFIKAFIKFHGHVYLSKSLEKLSPLREKLEEQFKRLLFQKAFNSQQLVHVTVINLFQLHHLRDFSNETEQHSYSQDEQLCWTQLLALFMSFLGILCKCPLQNDSQESNNAYPLPAVKVSMDWLRLRPRVFQEAVVDERQYIWPWLISLLNSFHPREDDLSNTNATPLPEEFELQGFLALRPSFRNLDFSKGHQGITGDKEGQQRRIRQQRLISIGKWIADNQPRLIQCENEVGKLLFITEIPELILEDPSEAKENLILQETSVVESLATDGSPGLKSVLSTGRNPSNSCDSGEKPVVTFKENIKPREVNQGRSFPPKEVKSQTELRKTPVSEARKTPVTQTPSQTSNSQFIPIHHPGAFPPLPSRPGFPPPTYVIPPPVAFSMGSGYTFPAGVSVPGTFLQSTAHSPAGNQVQAGKQSHIPYSQQRPSGPGPMNQGPQQSQPPSQPPLTSLPAQPTAQSTSQLQVQALAQQQQSPTKVIPALGKSPPHHSGFQQYQQADASKQLWNPPQVQSPLGKIMPVKQSYYLQTQDPIKLFEPSLQPPVIQQQPLEKKMKPFPMEPYNHNPSEVKVPEFYWDSSYSMADNRAVMAQQPNMDRRSKRSPGVFRPEQDPVPRMPFEDPKSSPLLPPDLLKSLAALEEEEELIFSNPPDLYPALLGPLASLPGRSLFKSLLEKPSELMSHSSSFLSLTGFSVNQERYPNSSMFNEVYGKNLTTSSKAELNPSVASQETSLYSLFEGTPWSPSLPASSDHSTPASQSPHSSNPSSLPSSPPTHNHNSAPFSNFGPIGTPDNRDRRPADRWKTDKPAMGGFGVDYLSATSSSESSWHQASTPSGTWTGHGPSMEDSSAVLMESLKSIWSSSMMHPGPSALEQLLMQQKQKQQRGQGAMNPPH
binds | binds | WDR59 (protein, UniProt Q8C0M0 1-992) MAARWSSENVVVEFRDSQATAMSVDCLGQHAVLSGRRFLYIVNLDAPFEGHRKISRQSKWDIGAVQWNPHDSFAHYFAASSNQRVDLYKWKDGSGEVGTTLQGHTRVISDLDWAVFEPDLLVTSSVDTYIYIWDIKDTRKPTVALSAVAGASQVKWNKKNANYLATSHDGDVRIWDKRKPSTAVEYLAAHLSKIHGLDWHPDSEHIFATSSQDNSVKFWDYRQPRKYLNILPCQVPVWKARYTPFSNGLVTVMVPQLRRENSLLLWNASDLNAPVHTFVGHDDVVLEFQWRRQKEGSKDYQLVTWSRDQTLRMWRVDYQMQRLCANDILDGVDEFIESISLLPEPEKTPHPQDIDHQPSLSHGEEDAIKEDPPSSLLEEKRSDQLGLPQTLQQEFSLINVQIRNVNVEMDAADRSCTVSVHCSNHRVKMLVTFPAQYPNNAAPSFQFINPTTITSAVKAKLLKILKDTSLQKVKRNQSCLEPCLRQLVSCLESFVNQEDSASSNPFALQNSVTPPLPTFARVTTAYGSYQDANIPFPRTSGARFCGAGYLVYFTRPMTMHRAVSPTEPTPRSLSALSAYHTGLIAPMKIRTEAPGNLRLYSGSPTRSEKEQVSISSFYYKERKSRRWKSKREGSDSGNRPIKAAGKVIIQDVSCLLPVHKSLGELYILNVNDTQETCQKNATSAMLVGRKDLVQVWSLATVATDLCLGPKSDPDLETPWARHPFGRQLLESLWGDRESTRVCGPPLSGARLAHYCQLRDVQTLAMLCSVFEAQSRPQGLPNPFGPFPNRSSNLVVSHSRYPSFTSSGSCSSMSDPGFNTGGWNIAGRETEHISSPWGESSPEELRFGSLTYSDPRERERDQHDKNKRLLDPANTQQFDDFKKCYGEILYRWGLREKRAEVLKFVSCPPDPHKGIEFGVYCSHCRSEVRGTQCAICKGFTFQCAICHVAVRGSSNFCLTCGHGGHTSHMMEWFRTQEVCPTGCGCHCLLESTF
